Experimental data as given in the supplement of paper PMC10849652.
Some of the results follow.

Amino acid sequences for entries named in this document (tags omitted). A change or cut given only in a name is not applied to a line headed by its entry.
UniProt Q96BW5: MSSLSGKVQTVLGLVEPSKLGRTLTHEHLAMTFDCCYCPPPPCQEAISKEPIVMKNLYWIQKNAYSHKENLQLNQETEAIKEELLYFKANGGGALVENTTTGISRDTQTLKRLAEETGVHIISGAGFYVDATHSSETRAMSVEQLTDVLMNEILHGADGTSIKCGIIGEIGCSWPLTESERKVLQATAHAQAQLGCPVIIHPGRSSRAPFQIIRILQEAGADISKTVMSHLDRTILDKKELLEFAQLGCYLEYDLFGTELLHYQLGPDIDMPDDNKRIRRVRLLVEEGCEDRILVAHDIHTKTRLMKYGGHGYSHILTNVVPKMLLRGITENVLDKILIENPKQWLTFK
UniProt P55036: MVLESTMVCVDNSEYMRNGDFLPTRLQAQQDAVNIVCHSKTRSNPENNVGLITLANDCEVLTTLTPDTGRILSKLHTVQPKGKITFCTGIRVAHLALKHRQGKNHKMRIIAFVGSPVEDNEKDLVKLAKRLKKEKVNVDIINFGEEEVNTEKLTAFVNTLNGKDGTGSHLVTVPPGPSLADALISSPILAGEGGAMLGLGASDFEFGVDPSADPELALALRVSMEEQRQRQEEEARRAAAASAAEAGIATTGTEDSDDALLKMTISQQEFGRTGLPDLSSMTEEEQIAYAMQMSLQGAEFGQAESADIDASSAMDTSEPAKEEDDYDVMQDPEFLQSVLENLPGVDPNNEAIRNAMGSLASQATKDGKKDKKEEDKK
UniProt Q13200: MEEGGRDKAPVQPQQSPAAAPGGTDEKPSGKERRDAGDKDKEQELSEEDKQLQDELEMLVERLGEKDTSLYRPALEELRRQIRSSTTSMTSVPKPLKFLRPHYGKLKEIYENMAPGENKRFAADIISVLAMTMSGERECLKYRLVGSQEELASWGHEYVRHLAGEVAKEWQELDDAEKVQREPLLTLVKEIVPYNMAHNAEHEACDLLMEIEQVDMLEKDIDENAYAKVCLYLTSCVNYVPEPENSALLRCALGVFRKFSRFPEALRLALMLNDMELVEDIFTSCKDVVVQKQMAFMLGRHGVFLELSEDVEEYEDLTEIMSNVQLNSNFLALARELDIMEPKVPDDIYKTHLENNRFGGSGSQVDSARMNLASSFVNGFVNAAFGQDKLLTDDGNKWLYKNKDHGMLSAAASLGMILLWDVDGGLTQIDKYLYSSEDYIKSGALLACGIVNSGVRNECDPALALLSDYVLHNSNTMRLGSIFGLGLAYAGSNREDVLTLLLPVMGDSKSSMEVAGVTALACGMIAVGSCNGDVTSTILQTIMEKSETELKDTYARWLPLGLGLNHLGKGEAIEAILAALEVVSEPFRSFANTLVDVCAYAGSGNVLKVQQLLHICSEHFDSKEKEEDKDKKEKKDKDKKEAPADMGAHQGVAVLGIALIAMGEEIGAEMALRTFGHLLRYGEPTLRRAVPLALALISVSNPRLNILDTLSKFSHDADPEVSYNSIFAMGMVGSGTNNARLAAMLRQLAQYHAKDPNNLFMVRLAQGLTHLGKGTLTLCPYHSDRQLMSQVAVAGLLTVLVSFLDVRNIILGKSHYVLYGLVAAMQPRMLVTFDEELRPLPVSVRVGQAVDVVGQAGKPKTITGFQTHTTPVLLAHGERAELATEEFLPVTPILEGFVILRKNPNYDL
UniProt Q9H0R6: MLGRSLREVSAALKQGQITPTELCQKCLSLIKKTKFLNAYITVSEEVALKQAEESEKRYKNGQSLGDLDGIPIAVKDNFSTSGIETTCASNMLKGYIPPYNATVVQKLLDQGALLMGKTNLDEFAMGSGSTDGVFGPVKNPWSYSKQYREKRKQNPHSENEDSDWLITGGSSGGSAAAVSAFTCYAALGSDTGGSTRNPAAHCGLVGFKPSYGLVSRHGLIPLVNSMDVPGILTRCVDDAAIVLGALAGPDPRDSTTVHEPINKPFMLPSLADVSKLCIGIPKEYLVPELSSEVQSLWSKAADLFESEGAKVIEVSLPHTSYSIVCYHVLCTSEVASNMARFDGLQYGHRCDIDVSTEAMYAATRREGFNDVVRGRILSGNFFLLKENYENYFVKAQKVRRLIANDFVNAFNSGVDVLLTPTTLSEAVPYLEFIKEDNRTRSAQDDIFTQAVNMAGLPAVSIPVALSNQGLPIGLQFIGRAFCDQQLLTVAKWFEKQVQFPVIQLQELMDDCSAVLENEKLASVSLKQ
UniProt P53801: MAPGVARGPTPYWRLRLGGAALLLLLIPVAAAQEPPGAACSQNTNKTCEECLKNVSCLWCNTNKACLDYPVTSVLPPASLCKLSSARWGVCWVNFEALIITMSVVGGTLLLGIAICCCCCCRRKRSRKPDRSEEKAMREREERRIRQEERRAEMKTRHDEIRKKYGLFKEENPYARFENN
UniProt Q9P2B2: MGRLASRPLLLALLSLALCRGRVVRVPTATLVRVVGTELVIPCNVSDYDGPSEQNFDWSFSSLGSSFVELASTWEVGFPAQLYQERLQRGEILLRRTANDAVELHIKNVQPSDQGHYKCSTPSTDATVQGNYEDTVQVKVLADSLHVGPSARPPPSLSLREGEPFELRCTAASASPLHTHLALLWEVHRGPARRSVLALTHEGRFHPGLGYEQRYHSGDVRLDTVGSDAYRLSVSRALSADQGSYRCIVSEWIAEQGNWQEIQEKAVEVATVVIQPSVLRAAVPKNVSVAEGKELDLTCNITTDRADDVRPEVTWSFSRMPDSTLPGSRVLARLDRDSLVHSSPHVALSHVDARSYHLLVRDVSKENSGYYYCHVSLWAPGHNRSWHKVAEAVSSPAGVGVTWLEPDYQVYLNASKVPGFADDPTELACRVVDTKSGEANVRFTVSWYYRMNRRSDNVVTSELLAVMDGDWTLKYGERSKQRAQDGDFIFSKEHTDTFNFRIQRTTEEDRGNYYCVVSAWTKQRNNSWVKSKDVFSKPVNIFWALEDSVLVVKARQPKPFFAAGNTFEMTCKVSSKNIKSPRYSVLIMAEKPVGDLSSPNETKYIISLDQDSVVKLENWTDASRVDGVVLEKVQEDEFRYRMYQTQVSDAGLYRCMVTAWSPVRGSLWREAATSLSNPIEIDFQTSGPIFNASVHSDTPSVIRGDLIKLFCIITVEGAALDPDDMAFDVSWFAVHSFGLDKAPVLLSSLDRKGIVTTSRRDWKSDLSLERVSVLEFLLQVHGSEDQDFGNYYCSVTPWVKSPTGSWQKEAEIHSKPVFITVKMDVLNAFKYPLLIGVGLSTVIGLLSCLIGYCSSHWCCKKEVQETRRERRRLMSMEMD
UniProt Q9H939: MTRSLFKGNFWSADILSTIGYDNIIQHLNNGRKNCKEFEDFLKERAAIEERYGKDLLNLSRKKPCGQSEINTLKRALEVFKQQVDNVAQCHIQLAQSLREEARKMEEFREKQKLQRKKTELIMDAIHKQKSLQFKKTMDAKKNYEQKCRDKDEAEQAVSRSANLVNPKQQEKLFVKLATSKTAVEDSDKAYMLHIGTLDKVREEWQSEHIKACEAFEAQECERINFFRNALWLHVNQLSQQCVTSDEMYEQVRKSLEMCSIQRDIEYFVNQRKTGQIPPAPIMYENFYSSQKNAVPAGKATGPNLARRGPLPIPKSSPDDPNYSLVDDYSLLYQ
UniProt Q8TB72: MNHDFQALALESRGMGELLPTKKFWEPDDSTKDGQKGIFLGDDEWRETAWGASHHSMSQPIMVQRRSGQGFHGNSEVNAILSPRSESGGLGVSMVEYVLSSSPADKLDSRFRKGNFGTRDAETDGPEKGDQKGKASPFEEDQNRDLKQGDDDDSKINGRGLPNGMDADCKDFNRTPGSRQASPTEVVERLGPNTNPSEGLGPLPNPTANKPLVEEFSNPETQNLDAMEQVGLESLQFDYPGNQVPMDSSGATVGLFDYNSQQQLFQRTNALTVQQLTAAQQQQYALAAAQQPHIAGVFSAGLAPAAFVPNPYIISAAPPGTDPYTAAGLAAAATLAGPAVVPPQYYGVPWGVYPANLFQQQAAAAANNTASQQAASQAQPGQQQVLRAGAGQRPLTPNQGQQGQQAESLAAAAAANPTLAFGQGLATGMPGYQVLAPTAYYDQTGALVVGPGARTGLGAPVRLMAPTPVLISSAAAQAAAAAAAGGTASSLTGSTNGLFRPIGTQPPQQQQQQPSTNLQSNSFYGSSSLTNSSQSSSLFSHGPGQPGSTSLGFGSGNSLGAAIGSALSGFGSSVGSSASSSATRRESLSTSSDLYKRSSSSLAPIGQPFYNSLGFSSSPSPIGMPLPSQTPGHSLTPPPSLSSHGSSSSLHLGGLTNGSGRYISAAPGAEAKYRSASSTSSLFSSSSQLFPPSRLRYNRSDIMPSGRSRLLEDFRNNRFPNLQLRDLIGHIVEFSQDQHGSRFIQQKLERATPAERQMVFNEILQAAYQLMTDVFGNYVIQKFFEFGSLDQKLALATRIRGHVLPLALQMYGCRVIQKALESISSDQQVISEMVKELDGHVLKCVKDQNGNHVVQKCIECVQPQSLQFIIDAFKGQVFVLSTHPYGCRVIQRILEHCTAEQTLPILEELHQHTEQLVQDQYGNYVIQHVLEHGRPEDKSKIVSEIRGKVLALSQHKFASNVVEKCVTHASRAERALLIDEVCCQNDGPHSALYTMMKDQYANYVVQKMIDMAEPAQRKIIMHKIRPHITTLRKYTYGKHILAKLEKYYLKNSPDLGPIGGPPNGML
UniProt Q15257: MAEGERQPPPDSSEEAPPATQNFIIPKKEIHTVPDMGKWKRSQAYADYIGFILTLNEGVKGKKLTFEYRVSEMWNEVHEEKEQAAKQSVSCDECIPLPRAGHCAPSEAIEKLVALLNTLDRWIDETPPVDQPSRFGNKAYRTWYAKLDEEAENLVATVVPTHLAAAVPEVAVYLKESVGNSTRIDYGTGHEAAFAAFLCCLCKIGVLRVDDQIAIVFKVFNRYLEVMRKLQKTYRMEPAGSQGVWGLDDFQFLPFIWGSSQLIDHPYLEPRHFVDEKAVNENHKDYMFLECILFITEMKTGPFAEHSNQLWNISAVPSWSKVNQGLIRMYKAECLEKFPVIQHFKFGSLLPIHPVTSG
UniProt Q9BZE2: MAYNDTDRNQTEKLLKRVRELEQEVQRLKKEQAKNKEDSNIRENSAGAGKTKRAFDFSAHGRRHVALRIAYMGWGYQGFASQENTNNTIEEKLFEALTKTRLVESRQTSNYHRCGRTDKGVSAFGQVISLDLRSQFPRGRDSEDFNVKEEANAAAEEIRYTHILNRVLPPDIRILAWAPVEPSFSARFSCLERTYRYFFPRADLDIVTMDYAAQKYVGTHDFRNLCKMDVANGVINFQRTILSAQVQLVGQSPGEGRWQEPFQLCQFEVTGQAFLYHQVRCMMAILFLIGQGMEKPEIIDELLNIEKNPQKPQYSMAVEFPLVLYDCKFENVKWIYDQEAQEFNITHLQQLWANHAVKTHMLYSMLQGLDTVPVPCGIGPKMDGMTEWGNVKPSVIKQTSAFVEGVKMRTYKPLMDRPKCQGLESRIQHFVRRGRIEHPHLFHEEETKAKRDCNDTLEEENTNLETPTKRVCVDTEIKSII
UniProt O43242, whole entry, looked up: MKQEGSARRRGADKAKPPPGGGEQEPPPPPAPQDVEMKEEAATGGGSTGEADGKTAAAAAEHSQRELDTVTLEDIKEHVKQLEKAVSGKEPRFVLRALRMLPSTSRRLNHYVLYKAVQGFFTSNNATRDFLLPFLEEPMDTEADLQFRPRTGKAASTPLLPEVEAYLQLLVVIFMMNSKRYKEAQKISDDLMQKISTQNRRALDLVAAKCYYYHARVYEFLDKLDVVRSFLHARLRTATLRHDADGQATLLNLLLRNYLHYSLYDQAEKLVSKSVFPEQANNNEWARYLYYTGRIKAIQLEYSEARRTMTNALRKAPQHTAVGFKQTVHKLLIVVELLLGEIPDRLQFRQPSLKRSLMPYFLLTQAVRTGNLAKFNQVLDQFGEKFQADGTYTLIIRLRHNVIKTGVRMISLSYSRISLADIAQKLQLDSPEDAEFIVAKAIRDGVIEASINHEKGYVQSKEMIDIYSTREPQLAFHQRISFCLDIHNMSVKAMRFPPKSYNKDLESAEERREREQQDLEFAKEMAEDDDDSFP
UniProt Q9Y3E5: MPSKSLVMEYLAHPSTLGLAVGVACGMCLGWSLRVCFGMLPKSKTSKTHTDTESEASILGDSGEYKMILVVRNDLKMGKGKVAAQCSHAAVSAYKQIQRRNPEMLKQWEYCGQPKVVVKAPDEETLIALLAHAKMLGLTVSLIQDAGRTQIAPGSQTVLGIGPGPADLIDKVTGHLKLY
UniProt Q9BXR0: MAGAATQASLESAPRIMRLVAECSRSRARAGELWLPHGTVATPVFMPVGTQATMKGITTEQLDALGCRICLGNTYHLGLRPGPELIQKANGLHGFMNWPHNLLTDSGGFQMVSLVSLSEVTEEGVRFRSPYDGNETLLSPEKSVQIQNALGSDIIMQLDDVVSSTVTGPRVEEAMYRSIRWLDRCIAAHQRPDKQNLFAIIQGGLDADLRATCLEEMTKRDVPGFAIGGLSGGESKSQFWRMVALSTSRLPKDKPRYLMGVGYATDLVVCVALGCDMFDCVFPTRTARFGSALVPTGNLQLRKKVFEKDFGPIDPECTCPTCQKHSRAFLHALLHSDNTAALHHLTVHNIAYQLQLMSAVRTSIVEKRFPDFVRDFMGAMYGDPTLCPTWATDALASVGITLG

Assays:
Experiment in all cases: log2 fold change, soluble protein after heating vs DMSO (PISA); higher = thermal stabilisation; K562 cells, 10 uM, 30 min; active = over 0.2 and 3.5 SD of the protein, either way, in both replicates (recomputed)
[1] = compound: NC(=O)Nc1cc(-c2cccc(F)c2)sc1C(=O)N[C@H]1CCCNC1
Procedure, shortened: (§1)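 Values are thermal stability changes relative to control samples and are taken from duplicates. They are stated as log2 fold changes. Before quantification by TMTpro 16plex LC-MS/MS with equalised channel sums, K562 cells at 2×10^6 cells/mL were treated with 10 μM compound for 30 min, heated in aliquots for 3 min across 48°C-58°C, pooled, extracted in PBS with 0.5% NP-40 at 4°C, and centrifuged at 21,000xg for 90 min to give the soluble supernatant.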

[2] = compound: NC(=O)c1cnc(N[C@@H]2CCCC[C@@H]2N)nc1Nc1cccc(-n2nccn2)c1
Procedure, shortened: as §1

[3] = compound: NC1(c2ccc(-c3nc4ccn5c(=O)[nH]nc5c4cc3-c3ccccc3)cc2)CCC1
Procedure, shortened: as §1

[4] = compound: NCC(=O)Nc1ccc(-n2nc(C(F)(F)F)cc2-c2ccc3c(ccc4ccccc43)c2)cc1
Procedure, shortened: as §1

entinostat = compound: Nc1ccccc1NC(=O)c1ccc(CNC(=O)OCc2cccnc2)cc1 [entinostat]
Procedure, shortened: as §1

vorinostat = compound: O=C(CCCCCCC(=O)Nc1ccccc1)NO [vorinostat]
Procedure, shortened: as §1

citarinostat = compound: O=C(CCCCCCNC(=O)c1cnc(N(c2ccccc2)c2ccccc2Cl)nc1)NO [citarinostat]
Procedure, shortened: as §1

silmitasertib = compound: O=C(O)c1ccc2c(c1)nc(Nc1cccc(Cl)c1)c1ccncc12 [silmitasertib]
Procedure, shortened: as §1

[5] = compound: O=C1NC(=O)C(c2cnc3ccccn23)=C1c1cn2c3c(cc(F)cc13)CN(C(=O)N1CCCCC1)CC2
Procedure, shortened: as §1

[6] = compound: c1cc(OCCN2CCCCC2)cc(-c2n[nH]c3ccc(-c4nnc[nH]4)cc23)c1
Procedure, shortened: as §1

Measured: log2 fold change

PRXL2B isoform 3 (UniProt Q8TBF2)
inactive: [1] 0.001 | [2] 0.025 | [3] 0.018 | [4] 0.027 | entinostat -0.029 | vorinostat 0.004 | citarinostat 0.044 | silmitasertib -0.057 | [5] -0.013 | [6] -0.019

PTER (UniProt Q96BW5)
inactive: [1] -0.023 | [2] 0.026 | [3] 0.007 | [4] 0.059 | entinostat -0.017 | vorinostat -0.027 | citarinostat 0.015 | silmitasertib 0.019 | [5] -0.008 | [6] -0.016

PTDSS1 (UniProt P48651)
inactive: [1] 0.043 | [2] -0.045 | [3] 0.022 | [4] -0.007 | entinostat -0.058 | vorinostat 0.199 | citarinostat -0.051 | silmitasertib 0.091 | [5] 0.184 | [6] -0.06

PSMD4 (UniProt P55036)
inactive: [1] -0.015 | [2] -0.005 | [3] 0.027 | [4] 0.093 | entinostat -0.026 | vorinostat -0.008 | citarinostat -0.016 | silmitasertib -0.027 | [5] 0.026 | [6] -0.068

PSMD2 (UniProt Q13200)
inactive: [1] -0.018 | [2] 0.012 | [3] 0.005 | [4] 0.038 | entinostat -0.024 | vorinostat 0.01 | citarinostat -0.006 | silmitasertib -0.018 | [5] 0.03 | [6] -0.082

PTBP3 isoform 4 (UniProt O95758)
inactive: [1] -0.069 | [2] -0.023 | [3] -0.007 | [4] -0.093 | entinostat 0.032 | vorinostat 0.058 | citarinostat 0.078 | silmitasertib 0.005 | [5] 0.028 | [6] -0.027

QRSL1 (UniProt Q9H0R6)
inactive: [1] -0.092 | [2] -0.007 | [3] -0.218 | [4] -0.089 | entinostat 0.006 | vorinostat -0.063 | citarinostat 0.053 | silmitasertib -0.049 | [5] -0.084 | [6] -0.036

PTBP1 (UniProt P26599)
inactive: [1] -0.036 | [2] 0.011 | [3] 0.002 | [4] -0.017 | entinostat 0.021 | vorinostat 0.153 | citarinostat 0.039 | silmitasertib 0 | [5] -0.023 | [6] -0.069

PWP2 (UniProt Q15269)
inactive: [1] 0.015 | [2] 0.105 | [3] 0.121 | [4] 0.052 | entinostat -0.056 | vorinostat 0.031 | citarinostat -0.066 | silmitasertib 0.111 | [5] -0.032 | [6] 0.014

PTTG1IP (UniProt P53801)
inactive: [1] -0.033 | [2] 0.026 | [3] -0.222 | [4] 0.065 | entinostat 0.12 | vorinostat -0.077 | citarinostat -0.017 | silmitasertib 0.083 | [5] 0.017 | [6] 0.07

PSMG1 (UniProt O95456)
inactive: [1] 0.014 | [2] 0.013 | [3] 0 | [4] 0.021 | entinostat 0.013 | vorinostat 0.002 | citarinostat 0.017 | silmitasertib -0.024 | [5] -0.007 | [6] 0

PTPA (UniProt A6PVN8)
inactive: [1] -0.015 | [2] -0.057 | [3] -0.062 | [4] -0.003 | entinostat -0.04 | vorinostat 0.099 | citarinostat -0.098 | silmitasertib 0.266 | [5] 0.05 | [6] -0.05

PTDSS2 (UniProt Q9BVG9)
inactive: [1] -0.001 | [2] -0.073 | [3] -0.069 | [4] -0.1 | entinostat 0.072 | vorinostat 0.09 | citarinostat 0.022 | silmitasertib 0.106 | [5] 0 | [6] 0.046

QSOX1 (UniProt O00391)
inactive: [1] 0.02 | [2] 0.043 | [3] 0.111 | [4] 0.011 | entinostat 0.006 | vorinostat 0 | citarinostat -0.242 | silmitasertib -0.149 | [5] 0.086 | [6] 0.049

PTGFRN (UniProt Q9P2B2)
inactive: [1] -0.115 | [2] 0.083 | [3] 0.013 | [4] 0.014 | entinostat -0.071 | vorinostat -0.055 | citarinostat 0.021 | silmitasertib -0.006 | [5] -0.007 | [6] -0.104

Quoted from the listing (two entries):
PSMG1 (UniProt O95456)
inactive: [1] 0.014 | [2] 0.013 | [3] 0 | [4] 0.021 | entinostat 0.013 | vorinostat 0.002 | citarinostat 0.017 | silmitasertib -0.024 | [5] -0.007 | [6] 0

PTPA (UniProt A6PVN8)
inactive: [1] -0.015 | [2] -0.057 | [3] -0.062 | [4] -0.003 | entinostat -0.04 | vorinostat 0.099 | citarinostat -0.098 | silmitasertib 0.266 | [5] 0.05 | [6] -0.05

Additional entries

PSTPIP2 (UniProt Q9H939)
inactive: [1] -0.026 | [2] -0.136 | [3] 0.027 | [4] -0.095 | entinostat 0.064 | vorinostat -0.018 | citarinostat 0 | silmitasertib -0.01 | [5] 0.032 | [6] 0.006

PUS10 (UniProt Q3MIT2)
inactive: [1] 0.004 | [2] -0.089 | [3] 0.123 | [4] 0.016 | entinostat 0 | vorinostat 0.034 | citarinostat 0.006 | silmitasertib 0.12 | [5] -0.045 | [6] -0.01

PSMC4 (UniProt P43686)
inactive: [1] 0.018 | [2] -0.016 | [3] 0.028 | [4] 0.027 | entinostat -0.023 | vorinostat -0.023 | citarinostat -0.015 | silmitasertib -0.015 | [5] 0.043 | [6] -0.051

PUM2 (UniProt Q8TB72)
inactive: [1] -0.088 | [2] -0.014 | [3] -0.101 | [4] -0.057 | entinostat -0.039 | vorinostat 0.03 | citarinostat -0.003 | silmitasertib 0.034 | [5] 0.102 | [6] -0.101

PTPA (UniProt Q15257)
inactive: [1] -0.022 | [2] 0.001 | [3] -0.021 | [4] 0.028 | entinostat 0 | vorinostat 0.004 | citarinostat 0.028 | silmitasertib -0.027 | [5] -0.021 | [6] -0.015

PUS3 (UniProt Q9BZE2)
inactive: [1] 0.032 | [2] -0.028 | [3] -0.051 | [4] -0.031 | entinostat 0.046 | vorinostat 0.075 | citarinostat 0.029 | silmitasertib -0.025 | [5] -0.033 | [6] -0.054

PSMD3 (UniProt O43242)
inactive: [1] -0.027 | [2] 0.009 | [3] -0.032 | [4] 0.041 | entinostat -0.02 | vorinostat -0.009 | citarinostat -0.009 | silmitasertib 0.008 | [5] 0.014 | [6] -0.082

PTCD3 (UniProt Q96EY7)
inactive: [1] 0.056 | [2] 0.081 | [3] -0.032 | [4] 0.125 | entinostat 0.018 | vorinostat 0.097 | citarinostat 0.046 | silmitasertib -0.07 | [5] -0.015 | [6] 0.023

PTP4A1 (UniProt Q93096)
inactive: [1] -0.035 | [2] -0.202 | [3] -0.007 | [4] 0.016 | entinostat 0.039 | vorinostat -0.029 | citarinostat 0.063 | silmitasertib -0.001 | [5] -0.075 | [6] 0.059

PTAR1 (UniProt Q7Z6K3)
inactive: [1] -0.041 | [2] -0.015 | [3] -0.031 | [4] 0 | entinostat -0.05 | vorinostat -0.074 | citarinostat -0.049 | silmitasertib -0.021 | [5] -0.024 | [6] 0.229

PSMA5 (UniProt P28066)
inactive: [1] 0.065 | [2] 0.052 | [3] 0.038 | [4] 0.065 | entinostat -0.001 | vorinostat -0.02 | citarinostat 0.021 | silmitasertib -0.006 | [5] 0.048 | [6] -0.055

PTRH2 (UniProt Q9Y3E5)
inactive: [1] -0.061 | [2] 0.018 | [3] -0.001 | [4] 0.004 | entinostat -0.016 | vorinostat -0.002 | citarinostat 0.047 | silmitasertib 0.007 | [5] -0.089 | [6] 0.005

QTRT1 (UniProt Q9BXR0)
inactive: [1] -0.005 | [2] -0.007 | [3] -0.01 | [4] -0.018 | entinostat 0 | vorinostat -0.007 | citarinostat 0.033 | silmitasertib -0.013 | [5] -0.031 | [6] -0.027

PSMA4 (UniProt P25789)
inactive: [1] 0.035 | [2] 0.051 | [3] 0.035 | [4] 0.064 | entinostat -0.02 | vorinostat -0.025 | citarinostat 0.019 | silmitasertib 0.005 | [5] 0.121 | [6] -0.033
